Results: paper PMC7852868
These are yes or no findings as the source states them, for the method shown. In cells and extracts the contact can be indirect. Some results given as binding are weak or reduced against the parent protein; the word gives no strength. One block for each substance: values may come before it.

Sequences of proteins named here, by UniProt entry; tags and fusion partners are left off. A change or cut given only in a name is not applied to a line headed by its entry.
UniProt P63104: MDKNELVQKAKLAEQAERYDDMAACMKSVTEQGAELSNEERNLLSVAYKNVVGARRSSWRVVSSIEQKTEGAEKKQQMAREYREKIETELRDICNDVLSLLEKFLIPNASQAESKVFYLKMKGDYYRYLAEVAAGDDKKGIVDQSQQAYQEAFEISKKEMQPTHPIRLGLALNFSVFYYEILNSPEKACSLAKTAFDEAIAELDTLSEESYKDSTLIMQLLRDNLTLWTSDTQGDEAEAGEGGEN
UniProt Q13283: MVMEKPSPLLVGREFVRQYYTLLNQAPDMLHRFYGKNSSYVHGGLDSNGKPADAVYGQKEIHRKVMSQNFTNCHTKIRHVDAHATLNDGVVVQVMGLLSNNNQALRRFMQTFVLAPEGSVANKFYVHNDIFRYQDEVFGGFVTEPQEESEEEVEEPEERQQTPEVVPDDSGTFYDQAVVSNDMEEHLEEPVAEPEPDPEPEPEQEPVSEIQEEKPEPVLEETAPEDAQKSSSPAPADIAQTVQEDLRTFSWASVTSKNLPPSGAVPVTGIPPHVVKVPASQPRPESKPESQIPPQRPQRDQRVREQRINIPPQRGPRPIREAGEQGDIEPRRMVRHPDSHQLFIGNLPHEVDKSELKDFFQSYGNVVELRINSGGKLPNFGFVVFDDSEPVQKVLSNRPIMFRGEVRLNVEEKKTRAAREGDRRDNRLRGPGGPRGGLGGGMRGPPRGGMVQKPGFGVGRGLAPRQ
UniProt Q07812: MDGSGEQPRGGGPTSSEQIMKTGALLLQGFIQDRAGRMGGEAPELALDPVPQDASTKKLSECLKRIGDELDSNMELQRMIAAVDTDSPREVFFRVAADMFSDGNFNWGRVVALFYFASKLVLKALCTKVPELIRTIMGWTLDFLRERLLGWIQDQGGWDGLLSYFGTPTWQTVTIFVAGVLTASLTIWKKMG

Experiments:
[1] = target: YWHAZ (human (endogenous in MGC80-3)) (UniProt P63104); assay: co-IP; MGC80-3 cells transfected with scramble or siG3BP1; IP with anti-YWHAZ antibody, anti-rabbit IgG as control; blot for Bax
[2] = target: YWHAZ (human (endogenous in MGC80-3)) (UniProt P63104); assay: co-IP; endogenous proteins in MGC80-3 whole-cell lysate; IP with anti-G3BP1 or anti-YWHAZ antibody, protein G agarose, IgG as negative control; lysis buffer 50 mM Tris-HCl pH 7.5, 150 mM NaCl, 0.1% NP-40, 15 mM MgCl2; 4 °C
Flag-YWHAZ = Flag-YWHAZ (UniProt P63104); assay: co-IP; 293T cells transfected with Flag-YWHAZ together with HA-G3BP1 constructs; immunoblot of whole-cell lysates and immunoprecipitates
[3] = target: G3BP1 (Ras-GTPase-activating protein SH3 domain-binding protein) (human (endogenous in MGC80-3)) (UniProt Q13283); assay: co-IP; endogenous proteins in MGC80-3 whole-cell lysate; IP with anti-G3BP1 or anti-YWHAZ antibody, protein G agarose, IgG as negative control; lysis buffer 50 mM Tris-HCl pH 7.5, 150 mM NaCl, 0.1% NP-40, 15 mM MgCl2; 4 °C

- binding [1]: binds
Substance: Bax (from UniProt Q07812 1-192)

- binding [2]: binds
Substance: G3BP1 (Ras-GTPase-activating protein SH3 domain-binding protein) (from UniProt Q13283 1-466)

- binding (Flag-YWHAZ): binds
Substance: HA-tagged G3BP1 fragment, RRM and RGG domains (326-466 aa) (from UniProt Q13283 326-466) (domain or fragment)

- binding [3]: binds
Substance: YWHAZ (from UniProt P63104 1-245)
